No constants are given. Whether binding was seen depends on the method and setting. In cells and extracts the contact can be indirect. Some results given as binding are weak or reduced against the parent protein; the word gives no strength. Tags and fused reporters may be left off the sequences shown.
Molecular target: SEC23B wild type in the anti-FLAG pull-down of Figure S9D,E, Q15437
Experiment: co-IP; printed as 'anti-FLAG pull-down assay'; SEC23B wild type against K81R (Figure S9D,E); further conditions not shown
Details: remark: other sources report otherwise

binding: binds
B1: SEC13 in the anti-FLAG pull-down of Figure S9D,E, P55735 1-322 (protein)
chain: MVSVINTVDTSHEDMIHDAQMDYYGTRLATCSSDRSVKIFDVRNGGQILIADLRGHEGPVWQVAWAHPMYGNILASCSYDRKVIIWREENGTWEKSHEHAGHDSSVNSVCWAPHDYGLILACGSSDGAISLLTYTGEGQWEVKKINNAHTIGCNAVSWAPAVVPGSLIDHPSGQKPNYIKRFASGGCDNLIKLWKEEEDGQWKEEQKLEAHSDWVRDVAWAPSIGLPTSTIASCSQDGRVFIWTCDDASSNTWSPKLLHKFNDVVWHVSWSITANILAVSGGDNKVTLWKESVDGQWVCISDVNKGQGSVSASVTEGQQNEQ
